Measured values taken from paper PMC5855860.

Sequences of proteins named here, by UniProt entry; tags and fusion partners are left off. A change or cut given only in a name is not applied to a line headed by its entry.
UniProt Q9SUR3: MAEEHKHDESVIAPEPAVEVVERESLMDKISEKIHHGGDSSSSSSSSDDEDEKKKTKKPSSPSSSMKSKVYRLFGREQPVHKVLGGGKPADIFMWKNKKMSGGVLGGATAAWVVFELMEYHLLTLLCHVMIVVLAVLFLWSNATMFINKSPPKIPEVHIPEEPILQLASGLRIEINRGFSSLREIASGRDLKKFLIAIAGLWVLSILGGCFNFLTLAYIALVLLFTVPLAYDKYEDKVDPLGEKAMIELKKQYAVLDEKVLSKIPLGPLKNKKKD

Molecular target: GST-RTNLB1 fusion protein (Arabidopsis thaliana) (UniProt Q9SUR3)
Experiment: pull-down; GST fusion or GST only on glutathione-sepharose beads, incubated with T7-tagged proteins from E. coli; bound proteins eluted with glutathione; blot with anti-T7 tag and anti-GST antibodies

B1: T7-tagged-RTNLB8 protein (protein, UniProt Q9SS37 1-247)
chain: MPDKNIVEDVIGDLVDNFTETVQKNKHGSSFFEQEDSVSSRFNRLFDRQKPIHHVLGGGKSADVLLWRNKKISASVLMGATAIWVLFEWINFHFLSLVCYALLLGMIAQFVWSNASGFLNRSQSRVPRLVLPKDFFAEVGVAVGKEVNRGLLFLQDLACKGNLKQFLMAVIGLWVAAMVGSCCNFLTVLYIGFVGAHTMPVLYERYEDEVDGFMDSMIMKFHSHYKKLDTGFLSRIPSGKFGLKKRE
  binding: no binding

These are yes or no findings as the source states them, for the method shown. In cells and extracts the contact can be indirect. Sequences can lack the tags named with a protein.
